In publication PMC3422273 one finds binding data, which are given here for 7 substances.

These are yes or no findings as the source states them, for the method shown. A result given as binding can be weak or reduced; the word gives no strength. Tags and fused reporters may be left off the sequences shown.

The test has as its target T1, LexA DNA-binding domain fusion of IAA8 (Arabidopsis thaliana) (UniProt Q38826).
T1 sequence: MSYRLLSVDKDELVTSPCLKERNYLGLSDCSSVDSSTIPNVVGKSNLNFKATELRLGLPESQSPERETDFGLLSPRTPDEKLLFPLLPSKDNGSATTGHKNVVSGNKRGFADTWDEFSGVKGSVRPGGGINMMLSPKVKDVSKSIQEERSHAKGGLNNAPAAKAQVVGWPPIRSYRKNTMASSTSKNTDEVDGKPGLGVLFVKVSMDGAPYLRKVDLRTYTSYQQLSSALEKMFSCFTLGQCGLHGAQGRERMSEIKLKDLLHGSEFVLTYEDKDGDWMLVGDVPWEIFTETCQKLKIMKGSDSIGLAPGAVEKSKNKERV
Nature of the test: two-hybrid; LexA-based system in yeast EGY48::pJK103; bait BD-IAA8 in pEG202gw, prey AD-ARFCTD in pJG4-5gw; semi-quantitative lacZ (beta-gal) activity by the ONPG method.
As to “AD-ARF3CTD (activation domain with HA tag fusion of the C-terminal domain of ARF3) (Arabidopsis thaliana) (domain or fragment)”, the binding result is given as “no binding”.
As to “AD-ARF4CTD (activation domain with HA tag fusion of the C-terminal domain of ARF4) (Arabidopsis thaliana) (domain or fragment)”, the binding entry is “binds”.
As to “AD-ARF5CTD (activation domain with HA tag fusion of the C-terminal domain of ARF5) (Arabidopsis thaliana) (domain or fragment)”, the binding result is given as “binds”.
As for “AD-ARF7CTD (activation domain with HA tag fusion of the C-terminal domain of ARF7) (Arabidopsis thaliana) (domain or fragment)”, the binding entry is recorded as “binds”.
With “AD-ARF11CTD (activation domain with HA tag fusion of the C-terminal domain of ARF11) (Arabidopsis thaliana) (domain or fragment)” the entry was “binds”; with “AD-ARF16CTD (activation domain with HA tag fusion of the C-terminal domain of ARF16) (Arabidopsis thaliana) (domain or fragment)”, “binds”.
Consider “AD-ARF19CTD (activation domain with HA tag fusion of the C-terminal domain of ARF19) (Arabidopsis thaliana) (domain or fragment)”, for which the binding result is “binds”.
